From PubChem BioAssay record AID977624 (Broad Institute, 2014).

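GFP-tagged normal-ribosome E. coli mixed with an RFP-tagged h34 humanized strain, with green signal taken as growth after 24 hours. The value is the change in activity at the highest dose tested; more negative means stronger inhibition. Active requires GFP to fall at least twice as much as RFP with growth loss below a set limit; inconclusive means no clear call; everything else is inactive.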

Only part of the assay is shown, chiefly results filed as inconclusive.

Result for COc1ccc(CN2C(=O)CC(Cc3cc(C)cc(C)c3)C2=O)cc1OC (centres undefined) [at 50 µM (top of the series)] was activity change -0.755 (inactive).
Result for O=C(CSc1ccccc1)NCCCc1ccccc1 [at 50 µM (top of the series)] was activity change 12.09 (inactive).
Result for Fc1ccccc1C1CCN(Cc2nc(COc3ccccc3)no2)C1 (centres undefined) [at 50 µM (top of the series)] was activity change 6.878 (inactive).
Result for Cc1ccc(C(=O)C2Oc3ccccc3C3CC(c4ccc(C)cc4)=NN23)cc1 (centres undefined) [at 50 µM (top of the series)] was activity change 25.15 (inconclusive).
Result for CC(=O)OC1N=C(c2ccccc2Cl)c2cc(Br)ccc2NC1=O (centres undefined) [at 50 µM (top of the series)] was activity change -5.491 (inactive).
Result for COc1cccc(Nc2nc(N)c([N+](=O)[O-])c(NCc3ccccc3)n2)c1 [at 50 µM (top of the series)] was activity change -3.654 (inconclusive).
Result for O=C(COc1cc(F)ccc1[N+](=O)[O-])NCCCc1ccccc1 [at 50 µM (top of the series)] was activity change -5.956 (inconclusive).
Result for O=C(Nc1ccc(Cl)c(Cl)c1)N[C@@H]1CC[C@@H](CCn2cc(C3CCCCC3)nn2)O[C@H]1CO [at 50 µM (top of the series)] was activity change 6.471 (inactive).
Result for COC(=O)c1cc(C(=O)c2c(C)cc3ccccn23)cc([N+](=O)[O-])c1 [at 50 µM (top of the series)] was activity change 5.632 (inconclusive).
Result for COC(=O)c1sccc1NC(=O)CNC(=O)c1ccccc1 [at 50 µM (top of the series)] was activity change 13.81 (inconclusive).
Result for C[n+]1ccccc1/C=C/c1cc(Br)ccc1O [at 50 µM (top of the series)] was activity change 8.108 (inconclusive).
Result for CC(=O)Nc1ccc(OCC(=O)N2CCC(Cc3ccccc3)CC2)cc1 [at 50 µM (top of the series)] was activity change 4.433 (inactive).
Result for O=C1N[C@@H](Cc2ccccc2)COC(=O)[C@H](Cc2ccc(F)cc2)C/C=C\C[C@H]1CC(=O)N(CCO)Cc1ccccc1 [at 50 µM (top of the series)] was activity change 14.72 (inconclusive).
Result for CN(C)c1ccc(-c2nnn(CC(=O)Nc3ccccc3N3CCOCC3)n2)cc1 [at 50 µM (top of the series)] was activity change -1.202 (inactive).
Result for COCC(C)NC(=O)c1nn(Cc2ccccc2)c(=O)c2ccccc12 (centres undefined) [at 50 µM (top of the series)] was activity change 7.254 (inconclusive).
Result for CC(C)CC#Cc1ccc([C@@H]2[C@@H](CO)N3C(=O)CN(C(=O)Cc4ccccc4)C[C@@H]23)cc1 [at 50 µM (top of the series)] was activity change -33.2 (inconclusive).
Result for CC1CCCC(NC(=O)COC(=O)[C@@H]2CC(O)CN2S(=O)(=O)c2ccc3c(c2)OCCO3)C1C (some centres undefined) [at 50 µM (top of the series)] was activity change 32.66 (inconclusive).
Result for O=C(NCc1cccnc1)C1CCN(S(=O)(=O)c2cc([N+](=O)[O-])ccc2Cl)CC1 [at 50 µM (top of the series)] was activity change -4.969 (inconclusive).
Result for Cc1cccc(-c2noc(-c3ccccc3C(=O)NCc3ccco3)n2)c1 [at 50 µM (top of the series)] was activity change -11.79 (inconclusive).
Result for O=[N+]([O-])c1ccc(NCCNCCOc2nonc2-c2ccccc2)c([N+](=O)[O-])c1 [at 50 µM (top of the series)] was activity change -14.48 (inconclusive).
Result for CCCCn1c(=O)[nH]c(=O)c2c1nc(-c1ccccc1F)n2Cc1ccccc1 [at 50 µM (top of the series)] was activity change 8.694 (inactive).
Result for CC(NC(=O)c1c(N)[nH]c(C(=O)c2ccccc2)c1-c1ccccc1Br)c1cccc2ccccc12 (centres undefined) [at 50 µM (top of the series)] was activity change 15.67 (inconclusive).
Result for Cc1ccc(NS(=O)(=O)c2ccc3c(c2)CCC(=O)N3)cc1C [at 50 µM (top of the series)] was activity change 4.546 (inconclusive).
Result for C[C@H](CO)N1C[C@H](C)[C@@H](CN(C)C(=O)CCCN(C)C)OCCCC[C@H](C)Oc2ccc(NC(=O)Nc3cccc4ccccc34)cc2C1=O [at 50 µM (top of the series)] was activity change 9.861 (inconclusive).
Result for C(=C\c1ccc(C2[C@H]3CNC[C@@H]2N3Cc2nccs2)cc1)/c1ccccc1 (some centres undefined) [at 50 µM (top of the series)] was activity change 12.16 (inconclusive).